“And” between values parts separate entries of the source, which are not always exact repeats. Equal entries are not always repeated. Out of some 410,000 compounds screened, about 18,000 (4.4%) were called active. This list was built around the results that the source calls inconclusive (neither active nor inactive); the mix of calls is not that of the screen. No stated cut-off is given here; in the data, active means activity change below about -60%; inconclusive means no clear call, values can overlap the other calls; inactive means above about -39%.
Experiment: qHTS Assay for inhibitors of the human cytomegalovirus (HCMV)
Details: HFF cells, HCMV-luciferase reporter, 72 h; at 57.5 µM; hits give low values
Method in brief: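 HFF cells seeded 16 h at 37C, treated with compounds, infected with luciferase-reporter HCMV at MOI 1 PFU/cell; luciferase read at 72 h post infection, normalized to buffer-only and Salinomycin controls.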
For `CCOc1cccc(C(=O)Nc2c(C(=O)c3ccc(OC)cc3)oc3ccccc23)c1`, the activity change, negative = inhibition was inconclusive: -51.8%. In the case of `Cc1cccc(NC(=O)CSCc2nc3c(nnn3Cc3ccc(F)cc3)c(=O)[nH]2)c1C`, the activity change, negative = inhibition is reported as inconclusive: -55%. With `COc1ccc(C(=O)COC(=O)c2cccnc2Cl)c(OC)c1` the activity change, negative = inhibition was inactive: -0.462%. In the case of `N#Cc1cc2c(nc1SCC(O)CS(=O)(=O)Cc1ccc(Cl)cc1)CCCC2` (stereo not given), the activity change, negative = inhibition is reported as active: -63.6%. For `Cc1cc(OCc2nnc(SC(C)C(=O)O)n2Cc2ccccc2)ccc1Cl` (stereo not given), the activity change, negative = inhibition was inconclusive: -51.2%. With `CC1(C)CC(=O)/C(=C\c2cccc([N+](=O)[O-])c2)C(C)(C)N1` the activity change, negative = inhibition was active: -85.9%. With `CC(=O)N1CCN(S(=O)(=O)c2c(C)n(C)c(=O)n(C)c2=O)CC1` the activity change, negative = inhibition was inconclusive: -59.8%. With `Clc1ccc(-c2ccc(SCc3ccccn3)nn2)cc1` the activity change, negative = inhibition was inactive: 79%. For `COc1cc(NC(=O)c2cccc(Cl)c2)c(OC)cc1NC(=O)CN1CCCCC1`, the activity change, negative = inhibition was inconclusive: -50.9%. With `CCn1c(SCC(=O)Nc2ccc(C)cc2)nc(O)cc1=O` the activity change, negative = inhibition was inactive: -15.3%. With `O=C(N/C(=C\c1ccc(Br)cc1)C(=O)N1CCOCC1)c1ccc([N+](=O)[O-])cc1` the activity change, negative = inhibition was inactive: 5.9%. With `CCOC(=O)C1=C[C@@H](C(C)(C)C)N(S(=O)(=O)c2ccc([N+](=O)[O-])cc2)[C@H]1c1ccccc1Cl` the activity change, negative = inhibition was inconclusive: -47.8%. In the case of `CC(Oc1ccc(Br)cc1Br)C(=O)Nc1cccnc1Cl` (stereo not given), the activity change, negative = inhibition is reported as inconclusive: -44.2%. For `COc1cccc(CNC(=O)Cn2cc3c(n2)-c2c(oc(C(=O)N4CCOCC4)c2C)CC3)c1`, the activity change, negative = inhibition was inconclusive: -45.2%. In the case of `O=C(c1ccccc1)N1CCOC(O)(c2ccccc2)C1c1ccccc1` (stereo not given), the activity change, negative = inhibition is reported as active: -61.1%. In the case of `COc1cccc(-n2c(COc3ccc(C)cc3)nnc2SCC(N)=O)c1`, the activity change, negative = inhibition is reported as inconclusive: -40.7%. In the case of `Cc1ccc([N+](=O)[O-])cc1S(=O)(=O)Nc1ccc(C(=O)N(C)C)cc1`, the activity change, negative = inhibition is reported as inconclusive: -43.6%. With `CCOC(=O)Cc1csc(NC(=O)Cc2ccccc2)n1` the activity change, negative = inhibition was inconclusive: -51.4%. With `c1ccc(OCCN2CCN(Cc3nc(-c4ccc5c(c4)OCO5)no3)CC2)cc1` the activity change, negative = inhibition was inactive: -26.1%. For `CC1(C)C(c2ccccc2)=NC(c2ccc(F)cc2)N1O` (stereo not given), the activity change, negative = inhibition was inactive: -0.874%. With `O=C(CSc1nc2c(c(=O)[nH]1)CCCC2)Nc1cccc(O)c1` the activity change, negative = inhibition was inactive: -7.34%. For `COCCCNC(=O)C1CCN(c2nnc(-n3cccc3CNc3ccc(C)cc3)s2)CC1`, the activity change, negative = inhibition was inconclusive: -48.9%. For `CCCNC(=S)N1CCC(NC(=O)C23CC4CC(CC(C4)C2)C3)CC1`, the activity change, negative = inhibition was inactive: 20%. For `CC(NCCN(C)C)C1CCC2C3CCc4cc(O)ccc4C3CCC12C` (stereo not given), the activity change, negative = inhibition was inconclusive: -47%. With `COc1ccc2c(C)cc(=O)oc2c1` the activity change, negative = inhibition was active: -102%. In the case of `O=C(Cc1cc(=O)oc2cc(O)ccc12)NN=Cc1ccc(N(CCCl)CCCl)cc1`, the activity change, negative = inhibition is reported as inconclusive: -41.2%. In the case of `O=C(Nc1cccc(S(=O)(=O)N2CCCC2)c1)c1cccc(OC(F)F)c1`, the activity change, negative = inhibition is reported as inconclusive: -52.2%. For `CCOC(=O)c1cnc(-n2nc(C)cc2C)nc1NCCc1ccccc1`, the activity change, negative = inhibition was active: -92.4%. In the case of `Cc1ccc(C)c(N2CCN(CCCNC(=O)Cn3c(-c4cccs4)cc4ccccc43)CC2)c1`, the activity change, negative = inhibition is reported as inconclusive: -55.2%. In the case of `c1ccc2c(c1)CC1(CCCCC1)n1nnnc1-2`, the activity change, negative = inhibition is reported as inconclusive: -44.5%. With `CCOC(=O)CC(=O)CSc1nc(C)cc(C)c1C#N` the activity change, negative = inhibition was inactive: 0.456%. For `COc1ccc(C(=O)NC(=S)Nc2ccc(N3CCCC3)cc2)cc1`, the activity change, negative = inhibition was inconclusive: -42.1%. With `O=C(/C=C/c1cccc([N+](=O)[O-])c1)NCC1CCCO1` (stereo not given) the activity change, negative = inhibition was inactive: 31.4%. For `COc1cc(OC)cc(C(=O)NC2CCSc3ccccc32)c1` (stereo not given), the activity change, negative = inhibition was inactive: -30.6%. In the case of `COc1ccc2nc(SC(C)C(=O)NC3(C#N)CCCCC3)[nH]c2c1` (stereo not given), the activity change, negative = inhibition is reported as inactive: -17.1%. With `COc1ccc(CC(=O)NNC(=O)c2cccs2)cc1` the activity change, negative = inhibition was inconclusive: -47.8%. In the case of `COCCNc1nc(NCc2cccs2)nc2ccsc12`, the activity change, negative = inhibition is reported as inconclusive: -55.5%. With `O=C(CC1Oc2ccccc2NC1=O)NCCc1ccccc1` (stereo not given) the activity change, negative = inhibition was inconclusive: -42.8%. For `Cc1cccc(NC(=O)CSCc2cc(=O)n3c(C)csc3n2)c1C`, the activity change, negative = inhibition was inconclusive: -53.5%. In the case of `O=C(Nc1nccs1)c1cn(-c2ccccc2)nc1-c1ccccc1`, the activity change, negative = inhibition is reported as inconclusive: -43.4%. In the case of `COc1ccccc1N1CCN(C(=O)CCSCc2ccccc2F)CC1`, the activity change, negative = inhibition is reported as inactive: 24.3% and inactive: -19.7%. For `Nc1nnc(SCCCC(=O)c2ccccc2)s1`, the activity change, negative = inhibition was inactive: -37.3%. In the case of `CC1(C)CN=C(N(Cc2ccccc2)C(=O)Nc2ccccc2)S1`, the activity change, negative = inhibition is reported as inconclusive: -48.6%. With `COc1ccccc1OCC(O)CN1CCOCC1` (stereo not given) the activity change, negative = inhibition was active: -100%. For `COc1ccc(S(=O)(=O)N(CC(=O)NC2CC2)c2ccc(C)cc2)cc1`, the activity change, negative = inhibition was inconclusive: -51.2%. For `O=C(Oc1ccc(NC(=O)c2cc3c(cc2Br)OCO3)cc1)c1ccccc1`, the activity change, negative = inhibition was inactive: -28%. For `CCc1nonc1NC(=O)COc1cc(C)c(Cl)c(C)c1`, the activity change, negative = inhibition was inconclusive: -48.9%. For `Cc1ccc(NC(=O)C(OC(=O)c2ccc(NC(N)=O)cc2)c2ccccc2)cc1Cl` (stereo not given), the activity change, negative = inhibition was inconclusive: -54.9%. In the case of `CN1CCc2c(sc(NC(=O)Cc3ccc(F)cc3)c2C(N)=O)C1`, the activity change, negative = inhibition is reported as inconclusive: -40.2%. For `CN(C)CCNC(=O)Cc1ccc(NC(=O)N2CCCCc3ccccc32)cc1`, the activity change, negative = inhibition was inactive: 7.02%. With `CC1=[N+](C)c2c(ccc3cccnc23)C1(C)C` the activity change, negative = inhibition was active: -108%. For `Cc1ccc(C(=O)NC(=S)Nc2ccc(-c3ccc(CO)o3)cc2)cc1`, the activity change, negative = inhibition was inconclusive: -45.7%. With `Cc1nnc(SCC(=O)Nc2ccccc2F)n1-c1ccc(F)cc1` the activity change, negative = inhibition was inconclusive: -49.2%. With `Cc1ccc(-c2nc(-c3ccccn3)no2)cc1Cl` the activity change, negative = inhibition was active: -64.1%. For `COc1ccc(Oc2cc(NC(=O)c3nn(C)cc3[N+](=O)[O-])cc([N+](=O)[O-])c2)cc1`, the activity change, negative = inhibition was active: -110%. With `[O-][n+]1cccc2c(Br)cc(Br)c(O)c21` the activity change, negative = inhibition was active: -84.4%. In the case of `O=C(CN1CCCCCC1)Nc1ccc([N+](=O)[O-])cc1Cl`, the activity change, negative = inhibition is reported as inconclusive: -46.6%. In the case of `COCCNC(=S)Nc1ccc(Cl)c(Cl)c1`, the activity change, negative = inhibition is reported as inconclusive: -44.2%. For `COc1cc2c(cc1OC)CN(C(=O)c1cc(S(=O)(=O)N3CCOCC3)ccc1Cl)CC2`, the activity change, negative = inhibition was inconclusive: -48%. For `CSc1ccc(C2NC(=O)CCC2[N+](=O)[O-])cc1` (stereo not given), the activity change, negative = inhibition was inconclusive: -42.5%. In the case of `COc1ccc(Oc2coc3c(CN4CCOCC4)c(O)ccc3c2=O)cc1`, the activity change, negative = inhibition is reported as inactive: 18.3%. For `COc1cc(C(=O)COC(=O)c2ccc([N+](=O)[O-])o2)cc(OC)c1OC`, the activity change, negative = inhibition was inactive: -25.6%. In the case of `Nc1c(C(=O)NCC2CCCO2)c2nc3ccccc3nc2n1/N=C/c1ccncc1` (stereo not given), the activity change, negative = inhibition is reported as inconclusive: -43.2%. In the case of `CCOC(=O)c1ccc(N2C(=O)c3[nH]nc(-c4ccccc4)c3C2c2cccs2)cc1` (stereo not given), the activity change, negative = inhibition is reported as active: -98.1%. For `Fc1ccc(CNC(=S)Nc2ccc(Cl)cc2Cl)cc1`, the activity change, negative = inhibition was inconclusive: -40.4%. With `O=C(NCCCN1CCOCC1)c1ccc(-n2nc(C(F)(F)F)cc2-c2cccs2)cc1` the activity change, negative = inhibition was active: -67.2%. With `CN(C)c1ccc(/C=N/NC(=O)C(O)c2ccc(Br)cc2)cc1` (stereo not given) the activity change, negative = inhibition was inconclusive: -43.5%. With `Cc1cc2c(cc1C)CSC(c1c(O)ccc3ccccc13)SC2` the activity change, negative = inhibition was active: -74.2%. For `COc1cccc(NC(=O)c2ccccc2C(F)(F)F)c1`, the activity change, negative = inhibition was inconclusive: -53.3%. For `Cc1ccc(S(=O)(=O)N(CC(=O)Nc2ccccc2-c2ccccc2)c2ccc(C)cc2C)cc1`, the activity change, negative = inhibition was inconclusive: -49.5%. With `COc1cccc(NC(=O)c2ccc(CN3CCc4ccccc4C3)cc2)c1` the activity change, negative = inhibition was inconclusive: -43.3%. In the case of `CCCCNCc1cc(Br)c(OCC(=O)NCc2ccccc2)c(OC)c1`, the activity change, negative = inhibition is reported as inconclusive: -40.5%. With `CC(C)CNC(=O)c1c(F)c(F)c(F)c(F)c1F` the activity change, negative = inhibition was inconclusive: -49.4%. In the case of `CCc1ccc(-c2nc(CN3CCCC(C(=O)NCCc4ccc(OC)c(OC)c4)C3)c(C)o2)cc1` (stereo not given), the activity change, negative = inhibition is reported as active: -92.3%. In the case of `CC(=O)N1c2ccc(S(=O)(=O)N(C)CC(=O)NC3CCCC3)cc2CC1C` (stereo not given), the activity change, negative = inhibition is reported as inconclusive: 0%. In the case of `CC(=O)NCC1COc2ccccc2O1` (stereo not given), the activity change, negative = inhibition is reported as inactive: 2.25%. For `Cc1nc(C)c(CCNC(=O)c2ccc(C(F)(F)F)cc2)s1`, the activity change, negative = inhibition was inconclusive: -42.3%. For `CC1CCN(C(=S)NC(=O)c2cccc([N+](=O)[O-])c2)CC1`, the activity change, negative = inhibition was inconclusive: -45.7%. In the case of `O=c1oc2c3c4c(cc2c2c1CCC2)OCCN4CCC3`, the activity change, negative = inhibition is reported as active: -67.8%. In the case of `O=C1/C(=C/c2cccs2)Cc2ccccc21`, the activity change, negative = inhibition is reported as inconclusive: -41%. With `O=C(CN1C(=O)c2ccccc2S1(=O)=O)c1ccccc1Cl` the activity change, negative = inhibition was active: -86.3%. With `COc1ccc(-c2cc(-c3nnc(COC(=O)CC4CC5CCC4C5)o3)c3ccccc3n2)cc1OC` (stereo not given) the activity change, negative = inhibition was inactive: -23.8%. In the case of `O=C(CN1C(=O)/C(=C/c2ccco2)SC1=S)NC1CCS(=O)(=O)C1` (stereo not given), the activity change, negative = inhibition is reported as inactive: 4.02%. In the case of `CCOC(=O)c1sc(N2C(=O)c3oc4ccc(F)cc4c(=O)c3C2c2cccc(OC)c2)nc1C` (stereo not given), the activity change, negative = inhibition is reported as inactive: 15.9%. For `COc1cc(OC)cc(C(=O)N[C@H](C(=O)Nc2nc3ccccc3[nH]2)C(C)C)c1`, the activity change, negative = inhibition was active: -77%. With `CCn1c(Cl)c(C=O)s/c1=N\S(=O)(=O)c1ccccc1` the activity change, negative = inhibition was inconclusive: -41.8%. In the case of `C=CCN1C(=O)C(CCCC)NC1=S` (stereo not given), the activity change, negative = inhibition is reported as inactive: -12.1%. For `CCOc1cc(C(=O)N=c2sccn2C)cc(Br)c1OC`, the activity change, negative = inhibition was inactive: -12.8%. For `CCN(C(=O)Cn1c(SCc2ccccc2F)nc2cccnc21)c1ccccc1`, the activity change, negative = inhibition was inactive: -25.3%. With `Cc1cc(N2CCCCC2)nc2ccc(NC(=O)CCC(=O)N3CCN(c4cccc(Cl)c4)CC3)cc12` the activity change, negative = inhibition was inactive: -12.1%.

— PubChem BioAssay AID1259415 (National Center for Advancing Translational Sciences (NCATS), 2018)
On the % scale 0 is the no-effect control and ±100 the full control effect.
